This assay is described as follows: qHTS Assay for Lipid Storage Modulators in Drosophila S3 Cells.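 On cell number change: cells counted by Cell Tracker Red CMTPX staining in the red channel.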 The settings on record: BODIPY lipid droplet fluorescence, 18-24 h; for cell number change: measured here: cell count max response, cells fed with added oleic acid. The method in brief: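 Drosophila S3 cells got compounds at several concentrations plus oleic acid (400 uM solution). Laser-scanning cytometry with 488 nm excitation read lipid droplets at 500-530 nm and cells at 575-640 nm. Percent activity was relative to 20 uM Triacsin C.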
For orientation: In qHTS, concentration-response curves come from the screen itself.

Setting [1] is: measured here: cell number channel AC50, cells fed with added oleic acid.
Where [2] appears, read: measured here: lipid fluorescence (Fed channel) AC50, cells fed with added oleic acid.

Some of the results follow. Further columns of the screen follow, without active or inactive calls. Most of these compounds were active or inconclusive in the main read-out, so they are no random draw. Words in brackets tell the shape of the fitted curve; partial curves, single points and poor fits give uncertain potencies.

As for `O=C(c1ccccc1)c1ccc(Oc2ncccn2)cc1`, the cell number change worked out at 18.8%. The AC50 under setting [1] was 2.59 µM [rising, partial curve].
With `COc1ccc(CCC(C)N2CCC(CO)(Cc3ccccc3)CC2)cc1` (stereo unspecified), the cell number change is -24.7%.
`O=C(NC(=S)Nc1ccc(N2CCCC2)cc1)c1ccccc1[N+](=O)[O-]`: the cell number change amounted to 12.9%. Also, the AC50 under setting [2] was 0.103 µM [rising, full curve, poor fit].
Turning to `O=C(O)CSc1nnc(CNc2ccc(Cl)cc2)n1Cc1ccccc1`, the cell number change is -24.4%. For the same compound, under setting [2], the AC50 is 20.6 µM [falling, partial curve].
In the case of `COc1ccc(S(=O)(=O)N2CCN(C(=O)c3cc(C)oc3C)CC2)cc1`, the cell number change was 16.9%. The AC50 under setting [1] was 0.461 µM [rising, full curve, poor fit].
In the case of `Cc1ccc(NS(=O)(=O)c2ccc(C3CCCCC3)cc2)cc1`, the cell number change is -69.2%. Under setting [1], the AC50 was 11.6 µM [falling, partial curve].
As to `CCOc1ccccc1OCCC(=O)N1CCN(S(=O)(=O)c2ccccc2[N+](=O)[O-])CC1`, the cell number change was -36.2%. Besides, the AC50 under setting [2] is 4.11 µM [falling, partial curve].
`CCn1cc(C(=O)OCc2ccccc2)c(=O)c2ccc(C)nc21`: the cell number change was 5.47%. Further, under setting [2], the AC50 is 0.116 µM [rising, full curve, poor fit].
For the compound `COc1nc(N/N=C/c2ccc(-c3ccccc3[N+](=O)[O-])o2)nc(N2CCOCC2)n1`, the AC50 under setting [2] was 0.326 µM [rising, single point].
For the compound `COc1ccc2c(c1OC)C(=O)N(c1ccccn1)C2`, the cell number change is -10.3%.
On to `NC(=O)C(c1ccccc1)C1CCCC1` (stereo unspecified), for which the cell number change is -41%. Further, under setting [1], the AC50 was 20.6 µM [falling, single point]. Also, the AC50 under setting [2] was 29.1 µM [falling, single point].
On to `Cc1nc2c(C)cccc2cc1C(=O)N/N=C/c1ccc(O)cc1`, for which the cell number change was 40.6%. The AC50 under setting [1] is 18.4 µM [rising, single point]. Under setting [2], the AC50 was 16.4 µM [rising, single point].
Take `N#CCC(=O)NNC(=S)Nc1ccccc1C(F)(F)F`: the cell number change was -43.1%. Besides, under setting [1], the AC50 is 35.5 µM [falling, partial curve, poor fit].
Turning to `CC1CCCCN1CCNC(=O)C1CCN(S(=O)(=O)c2cccc3nsnc23)CC1` (stereo unspecified), the cell number change came out at 2.28%. Besides, the AC50 under setting [2] was 32.6 µM [rising, single point].
For the compound `CCCn1c2ccccc2c2cn[nH]c(=O)c21`, the cell number change worked out at 18.2%. The AC50 under setting [2] is 20.6 µM [rising, single point].
`Cc1ccc(F)cc1NC(=O)C1CCCN(c2ncccn2)C1` (stereo unspecified): the half-maximal activity concentration (AC50) by setting is: under setting [1], 0.0731 µM [rising, full curve, poor fit]; under setting [2], 0.0651 µM [rising, full curve, poor fit].
As for `Cc1ccc(NC(=O)Nc2nnc(CSCCOc3ccc(Cl)cc3)s2)cc1`, the cell number change was -17.3%. The AC50 under setting [2] is 18.4 µM [rising, single point].
`Cn1c(=O)c2c(nc(Oc3ccc(-c4ccccc4)cc3)n2C)n(C)c1=O`: the cell number change stood at 13.1%. In addition, the AC50 under setting [1] is 6.51 µM [rising, single point]. Under setting [2], the AC50 was 4.11 µM [rising, single point].
On to `CCCN1C(=O)/C(=C\C=C2/C=CN(CC)c3ccccc32)SC1=S`, for which the cell number change is -27.8%. Further, under setting [1], the AC50 is 2.31 µM [falling, partial curve]. The half-maximal activity concentration (AC50) under setting [2] was 0.82 µM [falling, full curve, poor fit].
Regarding `CN(CCOc1ccccc1)CC(=O)Nc1ccc(Br)cc1F`, the cell number change was found to be 5.26%.
Consider `CCOC(=O)Cc1nn(C)c(=O)c2ccccc12`, for which the cell number change worked out at 22.2%. For the same compound, under setting [2], the AC50 was 29.1 µM [rising, single point].
Regarding `COc1ccc(-c2ccc(C#N)c(SCC(=O)NCc3ccco3)n2)cc1OC`, the cell number change is 20.1%. Further, the AC50 under setting [2] is 0.13 µM [rising, full curve, poor fit].
In the case of `O=C1CC(N2CCN(c3ccc(Cl)cc3)CC2)C(=O)N1c1ccccc1` (stereo unspecified), the cell number change is -19.7%. Also, the AC50 under setting [1] is 2.31 µM [falling, single point].
As for `O=C(CC1SCCNC1=O)Nc1cccc(Cl)c1` (stereo unspecified), the cell number change amounted to 3.75%. Also, the AC50 under setting [2] is 10.3 µM [falling, partial curve].
As for `Cc1ccc(C(=O)NCc2ccccn2)c(Cl)c1`, the cell number change worked out at 21.4%.
Take `COc1ccc(OC)c(CN2CCN(C(=O)c3ccco3)CC2)c1`: the cell number change stood at 4.4%. Further, the AC50 under setting [2] was 29.1 µM [rising, single point].
As to `C=CCNC(=O)c1ccccc1NS(=O)(=O)c1ccccc1`, the cell number change was -5.25%. Moreover, the AC50 under setting [2] is 1.46 µM [rising, full curve].
As for `Cc1[nH]cnc1C(=O)N/N=C/c1c(Cl)cccc1Cl`, the cell number change amounted to 18.3%. Under setting [2], the AC50 is 2.31 µM [rising, partial curve].
With `CCOC(=O)C(NCc1ccc2c(c1)OCO2)(NC(=O)c1ccccc1)C(F)(F)F` (stereo unspecified), the cell number change was -59.2%. For the same compound, the AC50 under setting [1] was 18.4 µM [falling, partial curve]. The AC50 under setting [2] is 7.31 µM [falling, partial curve].
Take `COc1cc(/C=N/NC(=O)/C(=C\c2ccc([N+](=O)[O-])cc2)NC(=O)c2ccccc2)cc(OC)c1O`: the cell number change was -0.35%.
In the case of `c1ccc2[nH]c(CN3CCOCC3)nc2c1`, the cell number change is 43.1%. For the same compound, under setting [1], the AC50 was 10.3 µM [rising, partial curve, poor fit].
Regarding `CCCn1cc(NC(=O)c2cc3n(n2)C(C(F)(F)F)CC(c2ccccc2)N3)cn1` (stereo unspecified), the cell number change worked out at 225%. For the same compound, under setting [1], the AC50 was 2.59 µM [rising, partial curve]. Further, the AC50 under setting [2] was 0.366 µM [rising, full curve].
Turning to `O=C(COC(=O)c1ccc(O)cc1O)c1ccc(Cl)cc1`, the cell number change was 35.7%. In addition, the AC50 under setting [1] was 29.1 µM [rising, single point].
For `COc1ccc(C2C(=O)c3ccccc3C2=O)cc1OC`, the cell number change was found to be 20.2%. The AC50 under setting [1] is 3.66 µM [falling, single point]. In addition, the concentration at half-maximal activity (AC50) under setting [2] is 3.66 µM [falling, single point].
In the case of `Cc1ccc2c(c1)NC(=O)C(CC(=O)NCCCN1CCN(c3cc(C)ccc3C)CC1)O2` (stereo unspecified), the AC50 under setting [2] was 32.6 µM [rising, single point].
On the same count and under the same terms, the same measure for `COc1ccc(Cl)cc1NC(=O)NC(C)C`: 6.51 µM [falling, single point].
For `COc1cc(CN2CCC(C(=O)N3CCC(C)CC3)CC2)cc(Br)c1O`, the cell number change stood at 10.9%. Moreover, the AC50 under setting [2] was 3.26 µM [rising, single point].
Turning to `Cc1cc(S(=O)(=O)Nc2ccc(C(=O)NCCCn3ccnc3)cc2)ccc1F`, the cell number change came to 30.1%. Further, under setting [1], the half-maximal activity concentration (AC50) is 23.1 µM [rising, single point].
For `CC1(C)CC(=O)C(CC(=O)N2CCC(Cc3ccccc3)CC2)C(=O)C1`, the AC50 under setting [2] is 1.3 µM [falling, full curve].

As a reminder, the AC50 is the midpoint of the concentration-response curve, whichever way the signal moves. Low values mean greater potency, high ones weaker potency.

Source of the values: PubChem BioAssay AID2685 (National Center for Advancing Translational Sciences (NCATS), 2010).
